Measured values: paper PMC12591178
No constants are given. Whether binding was seen depends on the method and setting. In cells and extracts the contact can be indirect. Some results given as binding are weak or reduced against the parent protein; the word gives no strength. For part of these data: Where a sequence is shown, tags or fusion partners need not be part of it.

Chains of the proteins cited; added tags and fusions are not shown.
UniProt P42227: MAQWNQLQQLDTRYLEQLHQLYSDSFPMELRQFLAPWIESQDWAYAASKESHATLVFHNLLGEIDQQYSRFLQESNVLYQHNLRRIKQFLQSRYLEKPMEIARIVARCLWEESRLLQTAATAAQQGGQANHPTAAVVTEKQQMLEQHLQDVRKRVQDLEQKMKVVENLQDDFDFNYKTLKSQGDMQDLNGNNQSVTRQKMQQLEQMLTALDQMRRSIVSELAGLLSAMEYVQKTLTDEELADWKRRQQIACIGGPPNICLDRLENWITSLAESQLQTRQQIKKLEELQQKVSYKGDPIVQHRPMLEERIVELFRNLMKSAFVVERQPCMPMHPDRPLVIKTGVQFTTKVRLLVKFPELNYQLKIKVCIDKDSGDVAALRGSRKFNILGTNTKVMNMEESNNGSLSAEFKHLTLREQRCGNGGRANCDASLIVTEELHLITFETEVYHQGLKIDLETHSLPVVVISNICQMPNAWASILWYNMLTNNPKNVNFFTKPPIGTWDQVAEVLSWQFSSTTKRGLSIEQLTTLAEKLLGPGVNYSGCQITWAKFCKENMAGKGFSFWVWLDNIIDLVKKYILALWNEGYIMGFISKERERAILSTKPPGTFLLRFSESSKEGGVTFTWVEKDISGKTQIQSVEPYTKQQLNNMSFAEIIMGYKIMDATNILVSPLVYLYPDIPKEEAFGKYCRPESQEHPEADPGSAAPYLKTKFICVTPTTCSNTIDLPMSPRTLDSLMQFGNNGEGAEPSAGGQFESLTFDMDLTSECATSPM
UniProt P37238: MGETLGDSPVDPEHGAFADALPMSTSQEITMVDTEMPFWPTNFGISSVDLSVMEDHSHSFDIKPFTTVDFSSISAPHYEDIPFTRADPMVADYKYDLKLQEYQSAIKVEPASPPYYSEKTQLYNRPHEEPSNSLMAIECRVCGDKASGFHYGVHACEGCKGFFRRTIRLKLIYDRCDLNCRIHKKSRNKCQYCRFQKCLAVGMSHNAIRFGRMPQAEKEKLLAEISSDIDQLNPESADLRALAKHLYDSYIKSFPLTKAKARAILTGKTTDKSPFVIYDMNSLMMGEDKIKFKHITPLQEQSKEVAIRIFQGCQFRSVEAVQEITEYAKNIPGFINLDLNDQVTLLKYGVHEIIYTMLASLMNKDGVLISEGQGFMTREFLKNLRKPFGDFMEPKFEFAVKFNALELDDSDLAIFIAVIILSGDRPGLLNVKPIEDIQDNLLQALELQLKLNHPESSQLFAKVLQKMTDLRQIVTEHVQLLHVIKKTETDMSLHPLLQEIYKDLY

Assays:
[1] = molecular target: phosphorylated STAT3 (p-STAT3) (UniProt P42227); assay: co-IP; co-IP among PPP1R3B, PPAR-γ, p-GSK-3β and p-STAT3 (Figure 5A); cells, baits and conditions not shown
[2] = molecular target: T1, protein phosphatase 1 regulatory subunit 3B (PPP1R3B) (UniProt Q8C767); assay: as above
T1 sequence: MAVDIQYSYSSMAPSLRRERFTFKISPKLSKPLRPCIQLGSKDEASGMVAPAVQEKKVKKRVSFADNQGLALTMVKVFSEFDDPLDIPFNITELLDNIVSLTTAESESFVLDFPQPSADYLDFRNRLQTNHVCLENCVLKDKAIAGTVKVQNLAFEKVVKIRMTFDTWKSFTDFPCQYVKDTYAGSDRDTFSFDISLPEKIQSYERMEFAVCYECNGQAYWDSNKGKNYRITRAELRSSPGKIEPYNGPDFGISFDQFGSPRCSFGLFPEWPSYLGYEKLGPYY

[3] = molecular target: T2, PPP1R3B of the GST pull-down assay (UniProt Q8C767); assay: pull-down; GST pull-down of PPP1R3B and endogenously phosphorylated STAT3 (Figure S14); conditions not shown; only the target purified
T2 sequence: T1 sequence

binding [1]	binding [2]	binding [3]	Substance
binds			peroxisome proliferator-activated receptor gamma (PPARG/PPAR-γ) (from UniProt P37238 1-505)
	binds	binds	phosphorylated STAT3 (p-STAT3) (from UniProt P42227 1-770)
